Laboratory results from article PMC8598065.
Results are given in words; binding and its absence hold for the method and conditions named. In cells and extracts the contact can be indirect. Some binding calls cover weakened binding; strength is not graded here. Sequences can lack the tags named with a protein.

B1: HA-MAGEH1 overexpressed from Ad-HA-MAGEH1 in HRE cells (protein, UniProt Q9H213 1-219)
chain: MPRGRKSRRRRNARAAEENRNNRKIQASEASETPMAASVVASTPEDDLSGPEEDPSTPEEASTTPEEASSTAQAQKPSVPRSNFQGTKKSLLMSILALIFIMGNSAKEALVWKVLGKLGMQPGRQHSIFGDPKKIVTEEFVRRGYLIYKPVPRSSPVEYEFFWGPRAHVESSKLKVMHFVARVRNRCSKDWPCNYDWDSDDDAEVEAILNSGARGYSAP
B2: GADD45G overexpressed from Ad-GADD45G in HRE cells (protein, UniProt O95257 1-159)
chain: MTLEEVRGQDTVPESTARMQGAGKALHELLLSAQRQGCLTAGVYESAKVLNVDPDNVTFCVLAAGEEDEGDIALQIHFTLIQAFCCENDIDIVRVGDVQRLAAIVGAGEEAGAPGDLHCILISNPNEDAWKDPALEKLSLFCEESRSVNDWVPSITLPE

Key:
[1] = target: T1, GADD45G overexpressed from Ad-GADD45G in HRE cells (human) (UniProt O95257); assay: co-IP; lysates of HRE cells co-infected with Ad-GADD45G and Ad-HA-MAGEH1 (MOI 250), with or without 25 ug/ml CsA; IP with anti-GADD45G and blot for HA-MAGEH1, and the reciprocal IP of HA-MAGEH1 with blot for GADD45G; Protein G agarose; control IgG
T1 sequence: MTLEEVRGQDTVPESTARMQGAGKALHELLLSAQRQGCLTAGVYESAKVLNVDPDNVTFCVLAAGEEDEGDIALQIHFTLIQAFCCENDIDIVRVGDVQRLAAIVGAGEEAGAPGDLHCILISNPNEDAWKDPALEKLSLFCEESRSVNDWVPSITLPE

[2] = target: T2, HA-MAGEH1 overexpressed from Ad-HA-MAGEH1 in HRE cells (UniProt Q9H213); assay: as above
T2 sequence: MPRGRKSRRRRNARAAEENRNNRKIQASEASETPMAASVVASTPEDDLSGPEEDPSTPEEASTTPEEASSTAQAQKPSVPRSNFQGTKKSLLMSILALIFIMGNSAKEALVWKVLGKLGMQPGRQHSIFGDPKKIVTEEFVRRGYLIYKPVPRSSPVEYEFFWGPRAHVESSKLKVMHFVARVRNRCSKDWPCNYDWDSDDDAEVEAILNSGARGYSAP

Row | Binder | binding [1] | binding [2]
1 | B1 | binds | 
2 | B2 |  | binds
